# PubChem BioAssay AID686943 – Drosophila RNAi Screening Center, 2013
# Assay: 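Search across the genome for regulators of signalling from receptor tyrosine kinase to ERK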 (primary screen)
# Cells: Drosophila S2R+ haemocyte-like cells expressing YFP-tagged ERK (Rolled)
# Knock-down reagent: long dsRNA against Drosophila genes
# Treatment: insulin stimulation versus unstimulated cells; dose and duration not given
# Measured: 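Per-plate z-scores of phospho-ERK immunostaining normalised to YFP-tagged ERK, measured with and without insulin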
# Scale: replicate 1, z-score of dpERK with insulin: higher = more active ERK per ERK-YFP after insulin
# In all, the deposit lists about 23,000 reagents; below is a random part of those that have a named target and a result. 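Extra replicates exist only for a retested subset of genes; insulin dose and duration not given; both raised and lowered dpERK matter.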 The numbers tell different reagents against one gene apart. Further read-outs or replicates are left out here. The record does not give: the amount of reagent, the time to read-out.
gene knocked down,dsRNA no.,"replicate 1, z-score of dpERK with insulin"
Cpr31A (Cuticular protein 31A),1,0.24
CG43069,1,0.54
Exd2 (Exonuclease 3'-5' domain-containing 2),1,0.51
Cyp28c1 (Cytochrome P450 28c1),1,-0.01
CG12522,1,0.49
CG13084,1,0.26
CG5131,1,0.02
Atg13 (Autophagy-related 13),1,0.18
Sec23 (Secretory 23),1,0.61
Wwox (WW domain containing oxidoreductase),1,-0.1
Wwox (WW domain containing oxidoreductase),2,1.89
Act42A (Actin 42A),1,-3.52
ClC-a (Chloride channel-a),1,0.04
ClC-a (Chloride channel-a),2,1.61
ClC-a (Chloride channel-a),3,-0.35
CG31368,1,0.21
CG31368,2,0.61
Gr61a (Gustatory receptor 61a),1,-1
Tsp42Ed (Tetraspanin 42Ed),1,-0.05
Wdr37 (WD repeat domain 37),1,0.97
CG3795,1,0.74
CG17030,1,0.41
"ash1 (absent, small, or homeotic discs 1)",1,0.83
hoe1 (hoepel1),1,-0.31
hoe1 (hoepel1),2,0.66
hoe1 (hoepel1),3,1.62
CG30094,1,-2.9
CG3907,1,-0.22
CG11151,1,-0.42
Creld (Cysteine rich with EGF like domains),1,-0.75
CG7530,1,0.08
Scr (Sex combs reduced),1,-2.26
DIP-alpha (Dpr-interacting protein alpha),1,0.47
DIP-alpha (Dpr-interacting protein alpha),2,0
CG13300,1,0.26
CG34224,1,-0.23
His4r (Histone H4 replacement),1,-1.83
CG42523,1,-1.12
CG42795,1,-0.81
CG42795,2,0
"Gmd (GDP-mannose 4,6-dehydratase)",1,-0.42
SLC22A (SLC22A family member),1,-0.11
SLC22A (SLC22A family member),2,0.72
gcm (glial cells missing),1,0.66
CG9008,1,1.37
Cpr76Ba (Cuticular protein 76Ba),1,-0.68
Cbs (Cystathionine beta-synthase),1,0.36
CG13872,1,0.16
SerT (Serotonin transporter),1,-1.74
Hsc70-2 (Heat shock protein 70 cognate 2),1,-0.41
CG6425,1,-0.37
hts (hu li tai shao),1,0.25
Corin,1,0.49
"ATPsyndelta (ATP synthase, delta subunit)",1,-0.02
mei-P22 (meiotic P22),1,-0.29
CR15821 (pseudo),1,-0.33
CG12540,1,0.34
